Results on one substance are retold here after article PMC11700651.

By UniProt entry, the sequences of proteins in these tests, tags left out.
UniProt O00571: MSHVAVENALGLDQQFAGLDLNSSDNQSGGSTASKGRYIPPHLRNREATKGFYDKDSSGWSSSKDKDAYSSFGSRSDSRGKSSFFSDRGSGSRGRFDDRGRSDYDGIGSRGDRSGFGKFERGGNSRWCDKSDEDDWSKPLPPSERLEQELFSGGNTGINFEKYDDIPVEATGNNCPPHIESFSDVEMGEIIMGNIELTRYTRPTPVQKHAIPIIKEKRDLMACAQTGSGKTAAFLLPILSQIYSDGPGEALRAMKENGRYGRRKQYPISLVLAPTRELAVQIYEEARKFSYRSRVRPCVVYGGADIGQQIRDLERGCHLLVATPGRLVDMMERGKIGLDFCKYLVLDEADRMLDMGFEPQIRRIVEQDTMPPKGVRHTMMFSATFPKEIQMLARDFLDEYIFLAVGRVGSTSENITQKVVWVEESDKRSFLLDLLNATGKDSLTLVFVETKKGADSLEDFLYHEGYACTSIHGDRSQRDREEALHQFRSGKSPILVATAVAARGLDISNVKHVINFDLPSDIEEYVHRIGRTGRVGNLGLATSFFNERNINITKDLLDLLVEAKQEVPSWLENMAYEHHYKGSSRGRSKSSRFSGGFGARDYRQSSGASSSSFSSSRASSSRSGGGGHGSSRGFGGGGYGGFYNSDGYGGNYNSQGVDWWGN

The target in the test is Flag-DDX3X (DEAD-box helicase 3X) (human) (UniProt O00571). In words: co-IP; HEK293T co-transfected with the plasmids; lysed in IP buffer (50 mM Tris pH 7.5, 1% Triton X-100, 150 mM NaCl); IP with IgG, anti-Flag or anti-METTL3 at 4°C, protein-G or -A agarose; washed with IP buffer with 0.3 M NaCl; western blot. A general note: Immunoblotting shows a protein as a band on a membrane.

Results are given in words; binding and its absence hold for the method and conditions named. Binding seen in cells or lysates may run through a third protein. Binding calls can cover weak binding; strength is not graded here.

On to “METTL3mut (catalytic center mutant, DPPW-APPA) (from UniProt Q86U44-1) (enzyme)”, for which the binding result is reported as “binds”.
